Measured values reported in patent US20200071759.

Test system: lectin
Experiment: binding assay
Conditions: 3'-phosphate on Capture Probe [1]; RCA readout, 10 mM KCl, 37 C; reaction stated specific only to thrombin; purified native protein

AAAGGAGAACCTCAAGCTCCTTTGGTTGGTG / TGGTTGGAAATTTTTTG
binding result: no binding

Construct, isoform or probe ends are uncertain for at least one entry. A negative result means that nothing was seen under these conditions.
